Measured values as given in US20190144538A1 (TETRAGENETICS, published 2019).
These are yes or no findings as the source states them, for the method shown. Some binding calls cover weakened binding; strength is not graded here.

Target: human Kv1.3 protein with C-terminal FLAG and 10xHis tags (human) (UniProt P22001)
Test: Kv1.3 ELISA

B1: 1A3 (Fc fusion, not shown: small tags and cut ends; a dimerising Fc or GST)
scFv (part 1 of 2): LDIQMTQSPSSVTASVGEKVTINCKSSQSVVSASNQKSYLNWYQQRPGQSPRLLIYYASTQELGIPDRFSGSGSTTDFTLTISSVQPEDAAVYYCQQAYSAPYNFGSGTRLEIK
scFv (part 2 of 2): QVQLQESGGGLVQPGGSLRLSCAASGFTFSINGMSWVRQAPGKEVEWVSSINSGGEITNYRDSVKGRFTISRDNVKNTLYLQMNSLKPEDTAFYHCVTGIVAYDYWGQGTQVTVSS
  binding: binds
